From patent US5763209
Results from cells or extracts need not show a direct contact.

Target: Egr-1 Δ3-47 del3-47 (Mus musculus) (UniProt P08046)
Assay: EMSA
Conditions: HeLa extract, poly dI-dC, room temperature; residues 331-419 alone required; protein in a lysate after overexpression; label: 32P

CGCCCTCGCCCCCGCGCCGGG (double strand) [EBS-1]
binding result: binds
